Part of at least one peptide drawing is inferred or uncertain, most often the ends.
Test system: ddY-strain male mice
Experiment: Analgesic effect, modified Randall-Selitto's test (Tale pressure method)
Assay type: in vivo
Details: 0.1 μmole/mouse, intracisternal injection, test at 5 min after injection, groups of 10 mice; control 1.17 ± 0.12
Protocol: Groups of 10 ddY-strain male mice weighing 24-30 g were used for measurement of analgesic effect of the peptide compounds of the present invention by modified Randall-Selitto's test (Tale pressure method). Analgesic test was performed at 5 min after intracisternal injection of the test drugs.

| Compound | Pain Index |
| --- | --- |
| C[C@H](N)C(=O)NCCCC(=O)O [Compound 2, Ala-GABA] | 1.80 ± 0.15 |
| N[C@@H](CCC(=O)N[C@@H](Cc1ccccc1)C(=O)NCCCC(=O)O)C(=O)O [Compound 22, γ-Glu-Phe-GABA.H2 O] | 1.72 ± 0.15 |
| N[C@@H](Cc1ccccc1)C(=O)NCCCC(=O)O [Compound 10, Phe-GABA] | 1.89 ± 0.14 |

From patent publication US5110797A, “Peptide compound and a pharmaceutically acceptable salt thereof” (Nippon Zoki Pharmaceutical Co., Ltd., priority 1985, dated 1992)
